Further values from the same series stand in other lists.
Key:
Format in all cases: functional
[1] = test system: Candida parapsilosis; test: Decrease in CGD gene ortholog accession number orf19.3815 expression in Candida parapsilosis CLIB214 at 50 uM after 2 hrs by microarray based transcriptional profiling relative to control
[2] = test system: Candida parapsilosis; test: Increase in CGD gene ortholog accession number orf19.7297 expression in Candida parapsilosis CLIB214 at 50 uM after 2 hrs by microarray based transcriptional profiling relative to control
[3] = test system: Candida parapsilosis; test: Decrease in CGD gene ortholog accession number orf19.1050 expression in Candida parapsilosis CLIB214 at 50 uM after 2 hrs by microarray based transcriptional profiling relative to control
[4] = test system: Candida parapsilosis; test: Decrease in CGD gene ortholog accession number orf19.5515 expression in Candida parapsilosis CLIB214 at 50 uM after 2 hrs by microarray based transcriptional profiling relative to control
[5] = test system: Candida parapsilosis; test: Decrease in CGD gene ortholog accession number orf19.3446 expression in Candida parapsilosis CLIB214 at 50 uM after 2 hrs by microarray based transcriptional profiling relative to control
[6] = test system: Candida parapsilosis; test: Increase in CGD gene ortholog accession number orf19.2527 expression in Candida parapsilosis CLIB214 at 50 uM after 2 hrs by microarray based transcriptional profiling relative to control
[7] = test system: Candida parapsilosis; test: Decrease in CGD gene ortholog accession number orf19.3458 expression in Candida parapsilosis CLIB214 at 50 uM after 2 hrs by microarray based transcriptional profiling relative to control
[8] = test system: Candida parapsilosis; test: Increase in CAG1 gene expression in Candida parapsilosis CLIB214 at 50 uM after 2 hrs by microarray based transcriptional profiling relative to control
[9] = test system: Candida parapsilosis; test: Decrease in PTR2 gene expression in Candida parapsilosis CLIB214 at 50 uM after 2 hrs by microarray based transcriptional profiling relative to control
[10] = test system: Candida parapsilosis; test: Decrease in CGD gene ortholog accession number orf19.5952 expression in Candida parapsilosis CLIB214 at 50 uM after 2 hrs by microarray based transcriptional profiling relative to control
[11] = test system: Candida parapsilosis; test: Increase in CGD gene ortholog accession number orf19.1747 expression in Candida parapsilosis CLIB214 at 50 uM after 2 hrs by microarray based transcriptional profiling relative to control
[12] = test system: Candida parapsilosis; test: Decrease in QCR2 gene expression in Candida parapsilosis CLIB214 at 50 uM after 2 hrs by microarray based transcriptional profiling relative to control
[13] = test system: Candida parapsilosis; test: Increase in CGD gene ortholog accession number orf19.4801 expression in Candida parapsilosis CLIB214 at 50 uM after 2 hrs by microarray based transcriptional profiling relative to control
[14] = test system: Candida parapsilosis; test: Decrease in CGD gene ortholog accession number orf19.5919 expression in Candida parapsilosis CLIB214 at 50 uM after 2 hrs by microarray based transcriptional profiling relative to control
[15] = test system: Candida parapsilosis; test: Increase in DAL9 gene expression in Candida parapsilosis CLIB214 at 50 uM after 2 hrs by microarray based transcriptional profiling relative to control
[16] = test system: Candida parapsilosis; test: Decrease in CAT8 gene expression in Candida parapsilosis CLIB214 at 50 uM after 2 hrs by microarray based transcriptional profiling relative to control
[17] = test system: Candida parapsilosis; test: Decrease in CGD gene ortholog accession number orf19.2788 expression in Candida parapsilosis CLIB214 at 50 uM after 2 hrs by microarray based transcriptional profiling relative to control
[18] = test system: Candida parapsilosis; test: Increase in CGD gene ortholog accession number orf19.5333 expression in Candida parapsilosis CLIB214 at 50 uM after 2 hrs by microarray based transcriptional profiling relative to control
[19] = test system: Candida parapsilosis; test: Decrease in PIN4 gene expression in Candida parapsilosis CLIB214 at 50 uM after 2 hrs by microarray based transcriptional profiling relative to control
[20] = test system: Candida parapsilosis; test: Decrease in CGD gene ortholog accession number orf19.6444 expression in Candida parapsilosis CLIB214 at 50 uM after 2 hrs by microarray based transcriptional profiling relative to control
[21] = test system: Candida parapsilosis; test: Increase in CGD gene ortholog accession number orf19.1552 expression in Candida parapsilosis CLIB214 at 50 uM after 2 hrs by microarray based transcriptional profiling relative to control
[22] = test system: Candida parapsilosis; test: Decrease in CGD gene ortholog accession number orf19.273 expression in Candida parapsilosis CLIB214 at 50 uM after 2 hrs by microarray based transcriptional profiling relative to control
[23] = test system: Candida parapsilosis; test: Increase in MNN2 gene expression in Candida parapsilosis CLIB214 at 50 uM after 2 hrs by microarray based transcriptional profiling relative to control
[24] = test system: Candida parapsilosis; test: Increase in RPN2 gene expression in Candida parapsilosis CLIB214 at 50 uM after 2 hrs by microarray based transcriptional profiling relative to control
[25] = test system: Candida parapsilosis; test: Increase in CGD gene ortholog accession number orf19.2484 expression in Candida parapsilosis CLIB214 at 50 uM after 2 hrs by microarray based transcriptional profiling relative to control
[26] = test system: Candida parapsilosis; test: Decrease in CGD gene ortholog accession number orf19.2724 expression in Candida parapsilosis CLIB214 at 50 uM after 2 hrs by microarray based transcriptional profiling relative to control
[27] = test system: Candida parapsilosis; test: Increase in CGD gene ortholog accession number orf19.1421 expression in Candida parapsilosis CLIB214 at 50 uM after 2 hrs by microarray based transcriptional profiling relative to control
[28] = test system: Candida parapsilosis; test: Decrease in LEU42 gene expression in Candida parapsilosis CLIB214 at 50 uM after 2 hrs by microarray based transcriptional profiling relative to control
[29] = test system: Candida parapsilosis; test: Increase in SCH9 gene expression in Candida parapsilosis CLIB214 at 50 uM after 2 hrs by microarray based transcriptional profiling relative to control
[30] = test system: Candida parapsilosis; test: Increase in HSP78 gene expression in Candida parapsilosis CLIB214 at 50 uM after 2 hrs by microarray based transcriptional profiling relative to control
[31] = test system: Candida parapsilosis; test: Decrease in PTC4 gene expression in Candida parapsilosis CLIB214 at 50 uM after 2 hrs by microarray based transcriptional profiling relative to control
[32] = test system: Candida parapsilosis; test: Decrease in CGD gene ortholog accession number orf19.4760 expression in Candida parapsilosis CLIB214 at 50 uM after 2 hrs by microarray based transcriptional profiling relative to control
[33] = test system: Candida parapsilosis; test: Decrease in CGD gene ortholog accession number orf19.4903 expression in Candida parapsilosis CLIB214 at 50 uM after 2 hrs by microarray based transcriptional profiling relative to control
[34] = test system: Candida parapsilosis; test: Decrease in PGA12 gene expression in Candida parapsilosis CLIB214 at 50 uM after 2 hrs by microarray based transcriptional profiling relative to control
[35] = test system: Candida parapsilosis; test: Increase in GenBank accession number NP_943644.1 expression in Candida parapsilosis CLIB214 at 50 uM after 2 hrs by microarray based transcriptional profiling relative to control
[36] = test system: Candida parapsilosis; test: Increase in CGD gene ortholog accession number orf19.3509 expression in Candida parapsilosis CLIB214 at 50 uM after 2 hrs by microarray based transcriptional profiling relative to control
[37] = test system: Candida parapsilosis; test: Decrease in OPT5 gene expression in Candida parapsilosis CLIB214 at 50 uM after 2 hrs by microarray based transcriptional profiling relative to control

With `CC(C)=CCC/C(C)=C/CC/C(C)=C/CO` [FARNESOL] the “fold change (FC)” value [1] was 1.64, the “fold change (FC)” value [2] was 2.08 and the “fold change (FC)” value [3] was 1.84. The “fold change (FC)” value [4] was 2.23, the “fold change (FC)” value [5] was 2.07 and the “fold change (FC)” value [6] was 1.52. The “fold change (FC)” value [7] was 1.65, the “fold change (FC)” value [8] was 1.7 and the “fold change (FC)” value [9] was 1.81. For the same molecule, the “fold change (FC)” value [10] was 1.75, the “fold change (FC)” value [11] was 1.64 and the “fold change (FC)” value [12] was 1.56. The “fold change (FC)” value [13] was 1.55, the “fold change (FC)” value [14] was 1.93 and the “fold change (FC)” value [15] was 1.6. For the same molecule, the “fold change (FC)” value [16] was 2.09, the “fold change (FC)” value [17] was 1.83 and the “fold change (FC)” value [18] was 1.57. For the same molecule, the “fold change (FC)” value [19] was 1.66, the “fold change (FC)” value [20] was 1.99 and the “fold change (FC)” value [21] was 2.05. For the same molecule, the “fold change (FC)” value [22] was 1.54, the “fold change (FC)” value [23] was 1.6 and the “fold change (FC)” value [24] was 1.69. The “fold change (FC)” value [25] was 1.55, the “fold change (FC)” value [26] was 1.52 and the “fold change (FC)” value [27] was 1.7. For the same molecule, the “fold change (FC)” value [28] was 1.88, the “fold change (FC)” value [29] was 1.62 and the “fold change (FC)” value [30] was 2.09. For the same molecule, the “fold change (FC)” value [31] was 2.16, the “fold change (FC)” value [32] was 2.13 and the “fold change (FC)” value [33] was 1.63. The “fold change (FC)” value [34] was 1.55, the “fold change (FC)” value [35] was 3.06 and the “fold change (FC)” value [36] was 1.5. For the same molecule, the “fold change (FC)” value [37] was 2.04.

Reference: ChEMBL document CHEMBL1157379, “Transcriptional response of Candida parapsilosis following exposure to farnesol” (2007)
